Experimental data published in patent publication US20210222166.
Where cells or extracts were used, other partners may take part. No signal at the amounts used counts as a negative.

Protein sequences, listed by entry. Tags and fused reporters are not part of them. Lines headed by an entry give the natural chain unless they say otherwise; changes in a name come on top.
UniProt Q04609: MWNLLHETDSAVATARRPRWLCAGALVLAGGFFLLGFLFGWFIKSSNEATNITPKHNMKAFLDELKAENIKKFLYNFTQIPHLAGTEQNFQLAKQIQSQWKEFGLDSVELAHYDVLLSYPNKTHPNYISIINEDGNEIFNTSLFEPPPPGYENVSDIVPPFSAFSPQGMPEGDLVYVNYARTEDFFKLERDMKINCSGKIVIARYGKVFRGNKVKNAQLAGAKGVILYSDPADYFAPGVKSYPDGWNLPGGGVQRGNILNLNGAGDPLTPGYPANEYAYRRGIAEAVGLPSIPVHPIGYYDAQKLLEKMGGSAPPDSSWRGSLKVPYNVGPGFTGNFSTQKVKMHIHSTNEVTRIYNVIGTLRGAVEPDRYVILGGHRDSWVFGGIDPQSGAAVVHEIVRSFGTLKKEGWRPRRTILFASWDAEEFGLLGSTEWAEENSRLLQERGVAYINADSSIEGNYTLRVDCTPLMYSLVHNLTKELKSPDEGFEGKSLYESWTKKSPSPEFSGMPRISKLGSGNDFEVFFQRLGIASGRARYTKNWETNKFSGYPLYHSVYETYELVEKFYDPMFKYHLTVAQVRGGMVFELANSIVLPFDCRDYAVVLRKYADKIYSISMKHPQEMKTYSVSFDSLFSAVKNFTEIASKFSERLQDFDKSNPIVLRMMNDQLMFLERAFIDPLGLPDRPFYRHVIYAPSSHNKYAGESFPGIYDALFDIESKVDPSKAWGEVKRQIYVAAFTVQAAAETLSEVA

Molecular target: PSMA (prostate specific membrane antigen) (UniProt Q04609)
Test: flow cytometry
Details: 2'-OMe with 4 LNA per strand, 5' amino C6; background uptake in LNCaP cells; protein on the cell surface; protein details: endogenous on LNCaP cells; label: …; synthetic backbone

“CCGTCCTGAGCC / CACAGTGGACGG / GGCTCACCGATC / GATCGGACTGTG [HJ (no aptamer)]”: no binding.
